Here are results for three compounds from publication PMC11091072, “Targeting bacterial nickel transport with aspergillomarasmine A suppresses virulence-associated Ni-dependent enzymes” (Nature Communications, 2024).

Peptide text beside a SMILES is read from it. * marks the point of attachment. Cbz = O=C(OCc1ccccc1)*

For this series, the system named is HEK293 cells. In words: HEK293 cytotoxicity assay (Cell Titer Glo 2.0). Conditions: 48 h. In general terms: Cellular ATP, detected with luciferase, serves as a proxy for viable cell number.

Turning to `N[C@@H](CN[C@@H](CN[C@@H](CC(=O)O)C(=O)O)C(=O)O)C(=O)O.[Zn+2]` [Zn-AMA], the “Hill slope (HEK293 viability)” value is -21.52.
With `CC(C)C[C@@H](C=O)NC(=O)[C@H](CC(C)C)NC(=O)[C@H](CC(C)C)NC(=O)OCc1ccccc1` [MG132, reference compound] (Cbz-Leu-Leu-Leu-aldehyde) the figure was -1.290; with `N[C@@H](CN[C@@H](CN[C@@H](CC(=O)O)C(=O)O)C(=O)O)C(=O)O.[Co+2]` [Co-AMA], -1.413.
